Reference: patent US11787762B2, “Tetralin and tetrahydroquinoline compounds as inhibitors of HIF-2alpha” (ARCUS BIOSCIENCES, INC., priority 2020, dated 2023)
The match of structure and compound is tentative.

Amino acid sequences for entries named in this document (tags omitted). Residues count along the entry.
UniProt Q99814, whole entry: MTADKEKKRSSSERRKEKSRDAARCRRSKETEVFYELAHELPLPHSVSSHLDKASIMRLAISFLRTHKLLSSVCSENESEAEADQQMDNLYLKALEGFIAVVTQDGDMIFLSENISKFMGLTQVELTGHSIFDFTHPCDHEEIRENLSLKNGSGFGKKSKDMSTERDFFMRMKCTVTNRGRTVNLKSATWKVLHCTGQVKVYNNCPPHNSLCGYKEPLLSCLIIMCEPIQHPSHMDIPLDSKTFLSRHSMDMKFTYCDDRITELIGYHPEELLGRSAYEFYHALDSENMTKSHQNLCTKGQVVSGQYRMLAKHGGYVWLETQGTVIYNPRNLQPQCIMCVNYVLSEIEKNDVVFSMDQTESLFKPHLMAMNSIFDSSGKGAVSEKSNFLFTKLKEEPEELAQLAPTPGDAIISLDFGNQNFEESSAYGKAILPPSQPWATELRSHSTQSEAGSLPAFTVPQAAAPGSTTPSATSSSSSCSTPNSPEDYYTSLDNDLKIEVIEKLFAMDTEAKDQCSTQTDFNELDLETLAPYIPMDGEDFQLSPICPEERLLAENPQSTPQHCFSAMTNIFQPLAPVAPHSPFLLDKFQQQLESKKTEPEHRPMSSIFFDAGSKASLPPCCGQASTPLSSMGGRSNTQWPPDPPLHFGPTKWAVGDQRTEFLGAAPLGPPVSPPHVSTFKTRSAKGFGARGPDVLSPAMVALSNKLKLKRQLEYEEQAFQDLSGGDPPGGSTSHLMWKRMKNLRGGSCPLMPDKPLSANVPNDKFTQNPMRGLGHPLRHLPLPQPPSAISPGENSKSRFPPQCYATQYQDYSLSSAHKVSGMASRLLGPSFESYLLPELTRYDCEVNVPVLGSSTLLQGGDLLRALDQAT
UniProt Q99814, 240-350 limits assumed: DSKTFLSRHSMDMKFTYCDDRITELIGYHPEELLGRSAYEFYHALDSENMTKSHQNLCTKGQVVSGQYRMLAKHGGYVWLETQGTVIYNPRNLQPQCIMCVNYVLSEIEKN

Tests used:
HIF-2α = HIF-2α (Homo sapiens, UniProt Q99814); assay: HIF-2α luciferase reporter assay in HIF-Luc-786-O cells; assay type: cell-based; details: read-out: HIF-2α Luciferase Assay, Table 1, 20 hours incubation
Protocol: Generation of HIF-2α Luciferase 786-O Cell Line:
Stable cell lines were generated by transducing 786-O cells (ATCC, CRL-1932) with Cignal Lenti HIF Luc Reporter lentivirus (CLS-007 L, Qiagen) according to the manufacturer's guidelines. In brief, 0.3×10^6 786-0 cells were transduced with lentivirus at a Multiplicity of Infection (MOI) of 25 for 24 hours. After transduction, cells were replenished with fresh RPMI 1640 Medium (Cat. No. 11875085, Thermo Fisher,) supplemented with 10% FBS (Cat. No. A3160502, Gibco), 2 mM GlutaMax (Cat. No. 35050-061, Invitrogen) and 100 units of penicillin and 100 μg of streptomycin/mL (Cat. No 15070063, Thermo Fisher) for another 24 hours. Antibiotic selection was performed in cell media containing 4 μg/mL of Puromycin. After 7 days of antibiotic selection, stable pools of surviving cells were expanded and used in a luciferase reporter assay.
HIF-2α Luciferase Reporter Assay:
On day one, 20 uL of HIF-Luc-786-0 cells in OptiMem (Cat. No. 31985088, Thermo Fisher) were seeded into each well of a 384 well white opaque plate (Corning 3570) and incubated at 37° C. and 5% CO2. Twenty microliters of 2× test compounds in OptiMem were added to cells after 4 hours of incubation. Final assay conditions comprised 20,000 cells per well in 1% DMSO with test compound concentrations ranging from 50 uM to 0 uM. After 20 hours incubation at 37° C. and 5% CO2, luciferase activity was determined using ONE-Glo Luciferase Assay Reagent (E6110, Promega) following the manufacture's recommended procedure. Briefly, 40 uL of ONE-Glo luciferase reagents were added to each well and luciferase signals were measured using an Envision 2102 Multilabel Reader. Percentage maximum activity in each test well was calculated based on DMSO (maximum activity) and no cell control wells (baseline activity). The IC50 values of the test compounds were determined from compound dose response curves fitted using a standard four parameter fit equation.

[1] = biological target: Histidine tagged HIF-2α protein containing PAS-B domain (240-350) (Homo sapiens, UniProt Q99814); assay: HIF-2α Scintillation Proximity Assay (SPA) binding assay; details: read-out: HIF-2α Scintillation Proximity Assay; Table 1; 50 nM HIF-2α protein, 25 nM 3H-tracer
Protocol: HIF-2α Scintillation Proximity Assay (SPA) Binding Assay:
Tritium labeled compound N-(3-chlorophenyl)-4-nitro-2,1,3-benzoxadiazol-5-amine was obtained from American Radiolabeled Chemicals Inc. and copper chelate PVT SPA beads were from PerkinElmer (Cat #RPNQ0095). Histidine tagged HIF-2α protein containing PAS-B domain (240-350) was prepared and purified in house.
Compounds solubilized in DMSO were dispensed into a white 384-well polystyrene non-binding flat clear bottom plate (Greiner Bio-One, Cat #781903) using an HP D300 dispenser. Ten microliters of HIS-tagged HIF-2α protein in buffer (25 mM Tris-HCl, pH 7.4, 150 mM NaCl, 0.15% BSA and 0.001% Tween 20) was added to the compound wells and allowed to incubate for 1 hour at room temperature. Ten microliters of SPA bead mix were added to the wells and incubated for an additional 45 minutes, followed by 10 ul of ^3H-tracer solution. Final assay conditions comprised 50 nM HIF-2α protein, 25 nM radiolabeled tracer and 3 ug beads per well with compounds in 2% DMSO. The plate was read using a MicroBeta Microplate Counter (PerkinElmer) for luminescence detection. The IC50 values of the test compounds were determined from compound dose response curves fitted using a standard four parameter fit equation and are reported in Table 1, Table 2, and Table 3.

Row | SMILES | IC50 (HIF-2α) [nM] | IC50 [1] [nM]
1 | CS(=O)(=O)c1ccc(N2CCCc3cc(F)cc(F)c32)c2c1C(O)C(F)(F)C2 (stereo not drawn) | > 1000 | > 1000
2 | N#Cc1c(S(=O)(=O)C(F)(F)F)ccc(N2CCCc3cc(Cl)cc(F)c32)c1Cl | > 1000 | > 1000
3 | CS(=O)(=O)c1ccc([C@H]2CCCc3cc(F)cc(C#N)c32)c2c1[C@H](O)[C@H](F)[C@H]2F | 100 to 1000 | 100 to 1000
